# Results are given in words; binding and its absence hold for the method and conditions named. In cells and extracts the contact can be indirect. Some entries that bind do so weakly or less than the wild type.
# By UniProt entry, the sequences of proteins in these tests, tags left out.
# UniProt P25106: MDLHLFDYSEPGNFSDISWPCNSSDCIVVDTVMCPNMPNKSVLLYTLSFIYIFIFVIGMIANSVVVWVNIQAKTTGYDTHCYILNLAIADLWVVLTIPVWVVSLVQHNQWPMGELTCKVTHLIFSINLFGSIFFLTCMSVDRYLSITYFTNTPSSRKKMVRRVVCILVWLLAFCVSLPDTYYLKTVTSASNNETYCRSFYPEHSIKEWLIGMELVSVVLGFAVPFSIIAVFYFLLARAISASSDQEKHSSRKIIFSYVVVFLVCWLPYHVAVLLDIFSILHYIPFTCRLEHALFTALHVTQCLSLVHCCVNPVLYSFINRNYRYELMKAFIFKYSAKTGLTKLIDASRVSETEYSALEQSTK
# UniProt P25098: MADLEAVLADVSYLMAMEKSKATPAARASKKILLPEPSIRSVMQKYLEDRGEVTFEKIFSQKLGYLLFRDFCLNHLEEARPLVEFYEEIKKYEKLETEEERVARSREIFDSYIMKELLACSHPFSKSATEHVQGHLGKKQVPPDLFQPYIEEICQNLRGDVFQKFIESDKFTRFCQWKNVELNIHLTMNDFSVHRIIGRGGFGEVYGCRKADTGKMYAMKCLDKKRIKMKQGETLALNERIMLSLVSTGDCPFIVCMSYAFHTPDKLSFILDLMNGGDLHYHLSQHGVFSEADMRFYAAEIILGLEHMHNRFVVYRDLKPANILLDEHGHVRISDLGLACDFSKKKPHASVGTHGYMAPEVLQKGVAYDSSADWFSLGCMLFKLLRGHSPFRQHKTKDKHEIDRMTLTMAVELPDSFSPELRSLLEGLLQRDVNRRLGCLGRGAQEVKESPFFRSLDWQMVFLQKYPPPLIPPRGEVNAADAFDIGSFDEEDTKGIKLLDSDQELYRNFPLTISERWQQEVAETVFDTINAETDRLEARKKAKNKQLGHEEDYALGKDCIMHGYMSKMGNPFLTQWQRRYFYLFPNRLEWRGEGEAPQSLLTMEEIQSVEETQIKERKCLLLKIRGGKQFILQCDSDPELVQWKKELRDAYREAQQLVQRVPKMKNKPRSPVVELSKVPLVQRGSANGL
# UniProt P35626: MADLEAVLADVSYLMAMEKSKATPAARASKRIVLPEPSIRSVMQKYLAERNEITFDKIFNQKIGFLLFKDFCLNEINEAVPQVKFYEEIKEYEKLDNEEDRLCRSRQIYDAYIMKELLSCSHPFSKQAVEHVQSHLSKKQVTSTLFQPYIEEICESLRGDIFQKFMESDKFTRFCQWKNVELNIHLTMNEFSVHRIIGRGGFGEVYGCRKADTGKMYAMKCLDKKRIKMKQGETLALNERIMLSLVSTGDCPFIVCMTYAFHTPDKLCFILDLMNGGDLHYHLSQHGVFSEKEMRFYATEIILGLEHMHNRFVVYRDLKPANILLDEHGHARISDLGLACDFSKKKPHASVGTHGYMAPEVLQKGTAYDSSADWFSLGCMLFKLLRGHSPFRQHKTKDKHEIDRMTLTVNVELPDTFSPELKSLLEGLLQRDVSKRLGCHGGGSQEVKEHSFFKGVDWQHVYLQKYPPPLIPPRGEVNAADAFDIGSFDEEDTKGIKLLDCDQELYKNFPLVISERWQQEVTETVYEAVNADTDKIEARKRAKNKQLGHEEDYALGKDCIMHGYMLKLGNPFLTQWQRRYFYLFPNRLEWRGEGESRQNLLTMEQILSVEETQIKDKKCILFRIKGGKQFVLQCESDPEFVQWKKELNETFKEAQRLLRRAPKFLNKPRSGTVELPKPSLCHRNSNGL
# UniProt P34947: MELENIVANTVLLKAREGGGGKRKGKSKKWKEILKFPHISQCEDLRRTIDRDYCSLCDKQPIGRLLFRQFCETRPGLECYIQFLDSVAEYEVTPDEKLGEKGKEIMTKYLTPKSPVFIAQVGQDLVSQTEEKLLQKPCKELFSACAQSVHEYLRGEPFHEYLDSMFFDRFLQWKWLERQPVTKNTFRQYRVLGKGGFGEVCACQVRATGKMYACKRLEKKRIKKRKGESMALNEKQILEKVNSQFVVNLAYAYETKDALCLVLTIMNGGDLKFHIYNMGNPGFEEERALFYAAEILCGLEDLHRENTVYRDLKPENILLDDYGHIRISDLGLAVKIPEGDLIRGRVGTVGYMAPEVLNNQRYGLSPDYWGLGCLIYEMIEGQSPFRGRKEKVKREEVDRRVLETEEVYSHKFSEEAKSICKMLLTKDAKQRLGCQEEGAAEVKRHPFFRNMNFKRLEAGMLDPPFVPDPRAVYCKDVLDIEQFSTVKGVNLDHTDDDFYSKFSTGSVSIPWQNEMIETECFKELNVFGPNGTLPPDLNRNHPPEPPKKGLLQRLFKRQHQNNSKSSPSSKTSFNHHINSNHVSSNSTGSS
# UniProt P43250: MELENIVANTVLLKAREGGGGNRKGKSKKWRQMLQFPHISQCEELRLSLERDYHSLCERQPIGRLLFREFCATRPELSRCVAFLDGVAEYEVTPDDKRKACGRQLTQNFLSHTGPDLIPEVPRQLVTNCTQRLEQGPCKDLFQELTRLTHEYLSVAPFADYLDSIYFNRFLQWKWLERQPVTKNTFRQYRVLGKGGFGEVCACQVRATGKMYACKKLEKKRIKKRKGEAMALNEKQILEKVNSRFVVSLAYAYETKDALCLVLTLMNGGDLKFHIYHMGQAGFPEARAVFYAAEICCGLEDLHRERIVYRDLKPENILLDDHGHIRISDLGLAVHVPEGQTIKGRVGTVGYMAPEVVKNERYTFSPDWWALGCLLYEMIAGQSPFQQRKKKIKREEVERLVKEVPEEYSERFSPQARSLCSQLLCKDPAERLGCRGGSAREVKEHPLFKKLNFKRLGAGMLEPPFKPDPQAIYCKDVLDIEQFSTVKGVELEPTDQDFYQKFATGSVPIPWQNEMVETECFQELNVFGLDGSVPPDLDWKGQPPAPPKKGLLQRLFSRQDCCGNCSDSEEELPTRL
# Molecular target: wild type ACKR3 fused with Renilla luciferase (RLuc) on the C-terminal tail (human) (UniProt P25106)
# Test: FRET or BRET; BRET in living HEK293T cells co-transfected with ACKR3-RLuc (WT or mutant, donor) and an eYFP- or mVenus-tagged partner (acceptor); Hanks' balanced salt solution, coelenterazine-h; stimulated with 100 nM CXCL12 and read in real time; some panels with 10 µM CMPD101 pre-incubation for 30 min
row,Substance,binding
1,G-protein-coupled receptor kinase 2 fused to the mVenus fluorescent protein (from UniProt P25098 1-689) (enzyme),binds
2,G-protein-coupled receptor kinase 3 fused to the mVenus fluorescent protein (from UniProt P35626 1-688) (enzyme),binds
3,G-protein-coupled receptor kinase 5 fused to the mVenus fluorescent protein (from UniProt P34947 1-590) (enzyme),binds
4,G-protein-coupled receptor kinase 6 fused to the mVenus fluorescent protein (from UniProt P43250 1-576) (enzyme),no binding
